Source: PubChem BioAssay AID602196 (INSERM, 2012)
Here is an unselected part of about 23,000 reagents. 455 of all reagents (2%) were called active. 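Active includes both protection and sensitisation; some change values fall well beyond the stated -50 to +50 range.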 Further read-outs or replicates are left out here. Reagent sequences are not shown. Not stated in the record: the amount of reagent.

- Purpose: 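Modifiers of cisplatin sensitivity in A549 cells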
- Cell system: human A549 lung cancer cells
- Reagent: siRNA pair against human genes
- Timing: 48 h transfection before cisplatin; time from cisplatin to read-out not stated
- Challenge: cisplatin at a dose killing half of control-siRNA cells; exact dose and duration not given
- Detection: 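Cisplatin cell death as a shift from the 50% death seen with control siRNA; siRNAs toxic or growth-blocking alone scored 0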
- Direction: two-siRNA summed score (-2 to +2): higher = both siRNAs protect from cisplatin killing; -2 means both sensitise; mean protection from cisplatin (shift in death): higher = protection from cisplatin killing
- Hit rule: 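Each siRNA scores 0 if harmful alone by LDH or WST-1, otherwise +1 if it reduces and -1 if it increases cisplatin killing; a gene is active when both siRNAs agree (sum +2 or -2)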
- Calls: active = both siRNAs shift cisplatin killing the same way; inactive = no consistent shift, or siRNA harmful alone

Knock-down of LOC391804 gave: two-siRNA summed score (-2 to +2) = 0; mean protection from cisplatin (shift in death) (%) = 1; inactive. Silencing of SGTA gave: two-siRNA summed score (-2 to +2) = -1; mean protection from cisplatin (shift in death) (%) = -10.1; inactive. For CDH7, the values are two-siRNA summed score (-2 to +2) = -1; mean protection from cisplatin (shift in death) (%) = -8.6; inactive. For LMNTD1, the values are two-siRNA summed score (-2 to +2) = 1; mean protection from cisplatin (shift in death) (%) = 6.5; inactive. For STEAP2, the entry reads two-siRNA summed score (-2 to +2) = 2; mean protection from cisplatin (shift in death) (%) = 10.2; active. After knock-down of LOC388889, the screen gave two-siRNA summed score (-2 to +2) = -1; mean protection from cisplatin (shift in death) (%) = -4.7; inactive.

Silencing of FLJ36492 came out at: two-siRNA summed score (-2 to +2) = 0; mean protection from cisplatin (shift in death) (%) = -4; inactive. LOC100287792 scored two-siRNA summed score (-2 to +2) = 0; mean protection from cisplatin (shift in death) (%) = 7.5; inactive. Against LOC440118, the entry reads two-siRNA summed score (-2 to +2) = 1; mean protection from cisplatin (shift in death) (%) = 13; inactive. CYB5B scored two-siRNA summed score (-2 to +2) = 0; mean protection from cisplatin (shift in death) (%) = 6.6; inactive. With knock-down of FAM241B, the record shows two-siRNA summed score (-2 to +2) = 0; mean protection from cisplatin (shift in death) (%) = -1.5; inactive. With knock-down of STING1, the record shows two-siRNA summed score (-2 to +2) = 0; mean protection from cisplatin (shift in death) (%) = 2.1; inactive.

XCL2 gave two-siRNA summed score (-2 to +2) = 0; mean protection from cisplatin (shift in death) (%) = 5.4; inactive. HOXD9 scored two-siRNA summed score (-2 to +2) = -1; mean protection from cisplatin (shift in death) (%) = -15.4; inactive. Silencing of FAM47B resulted in: two-siRNA summed score (-2 to +2) = 0; mean protection from cisplatin (shift in death) (%) = 2.7; inactive. For LOC391599 the deposit lists two-siRNA summed score (-2 to +2) = 0; mean protection from cisplatin (shift in death) (%) = 0.9; inactive. CNOT4 showed two-siRNA summed score (-2 to +2) = 0; mean protection from cisplatin (shift in death) (%) = -15.4; inactive. NOPCHAP1 gave two-siRNA summed score (-2 to +2) = 0; mean protection from cisplatin (shift in death) (%) = 4.7; inactive.

Depletion of LOC389856 came out at: two-siRNA summed score (-2 to +2) = 0; mean protection from cisplatin (shift in death) (%) = 2.1; inactive. LOC387931 scored two-siRNA summed score (-2 to +2) = 0; mean protection from cisplatin (shift in death) (%) = 7.8; inactive. ZNF432 gave two-siRNA summed score (-2 to +2) = 0; mean protection from cisplatin (shift in death) (%) = 2.6; inactive. Knock-down of TAS2R43 came out at: two-siRNA summed score (-2 to +2) = 0; mean protection from cisplatin (shift in death) (%) = 2.2; inactive. LOC442440 gave two-siRNA summed score (-2 to +2) = 1; mean protection from cisplatin (shift in death) (%) = 3.1; inactive. Against LOC440305 the deposit lists two-siRNA summed score (-2 to +2) = 0; mean protection from cisplatin (shift in death) (%) = 5.4; inactive.

ARMCX6 gave two-siRNA summed score (-2 to +2) = 0; mean protection from cisplatin (shift in death) (%) = -1.6; inactive. ANAPC10 showed two-siRNA summed score (-2 to +2) = -1; mean protection from cisplatin (shift in death) (%) = -6.7; inactive. For SFTPA1, the values are two-siRNA summed score (-2 to +2) = 0; mean protection from cisplatin (shift in death) (%) = 7.4; inactive. After knock-down of ARL6, the record shows two-siRNA summed score (-2 to +2) = 0; mean protection from cisplatin (shift in death) (%) = 11.2; inactive. With knock-down of PIGB the results were two-siRNA summed score (-2 to +2) = 0; mean protection from cisplatin (shift in death) (%) = 7.5; inactive. Silencing of OPTC resulted in: two-siRNA summed score (-2 to +2) = 0; mean protection from cisplatin (shift in death) (%) = -1.3; inactive.

Against TMX1, the values are two-siRNA summed score (-2 to +2) = 0; mean protection from cisplatin (shift in death) (%) = -1; inactive.

Entries above whose target name begins with F or f:
FLJ36492: two-siRNA summed score (-2 to +2) = 0; mean protection from cisplatin (shift in death) (%) = -4; outcome = inactive
FAM241B: two-siRNA summed score (-2 to +2) = 0; mean protection from cisplatin (shift in death) (%) = -1.5; outcome = inactive
FAM47B: two-siRNA summed score (-2 to +2) = 0; mean protection from cisplatin (shift in death) (%) = 2.7; outcome = inactive
